The experiment can be described thus: qHTS Assay for Enhancers of SMN2 Splice Variant Expression. Note: % of control where 0% means no effect; nearly all actives have a fitted effect of over 55% in size. The settings on record: HEK293 SMN2-luciferase splicing reporter, luminescence, 30-36 h. From the text:
NIH Chemical Genomics Center [NCGC] NIH Molecular Libraries Probe Production centers Network [MLPCN] MLPCN Grant: R03 MH084179-01 Assay Submitter (PI): Elliot Androphy NCGC Assay Overview: Spinal muscular atrophy (SMA) is caused by insufficient levels of the survival motor neuron protein SMN. The SMN locus on chromosome 5q13 contains two inverted copies of SMN called SMN1 and SMN2 which are 99% identical at the amino acid level. SMN1 is a fully functional protein and SMN2 skips exon 7 90% of the time. Skipping of exon 7 produces non-functional protein product. 10% of the SMN2 protein includes exon 7 and is fully functional. In the SMA disease state, mutations in the SMN1 locus are the cause of the disease state. Because only 10% of SMN2 is of the fully functional form, it is not sufficient to overcome the deficiency produced by the loss of the SMN1 product. A therapy that either increase the amount of SMN2 product made or to increase the inclusion of exon 7 has been proposed for the treatment of SMA. We have designed an assay to identify small molecules that can increase the amount of functional SMN2 product by appending a luciferase reporter gene after the native SMN2 gene, such that inclusion of exon 7 in the expressed product places the luciferase sequence in frame, thus generating functional luciferase enzyme.
NCGC Assay Protocol Summary: This screen utilizes a luciferase reporter gene assay, combining the promoter and splicing based cassettes in tandem with the major portion of the native SMN2 cDNA, and then transfected into HEK293 cells. Compounds that increase luciferase signal presumably enhance expression of the functional SMN2 splice variant. Passaging media contained DMEM w/ glutamax (+phenol red) 10% FCS, 1x pen/strep, 200 ug/ml hygro, 1x sodium pyruvate. Assay media contained DMEM w/ glutamax (-phenol red) 10% FCS, 1x pen strep, 1x pyruvate Sequence, Parameter, Value, Description (1) Cells, […], 2000 cells/well, 1536 TC treated White solid bottom plate (2) Time, 10-12 hours, 37C 5% CO2 (3) Compound, 23 nl, MLSMR Library (4) Control Compound, 23 nL, Sodium butyrate st 4.5mM (final) conc (5) Time, 30-36 hours, 37C 5% CO2 (6) Reagent, 3 ul, One Glo (TM) from Promega (7) Time, 5-15 minutes, Room temp (8) Detector, Viewlux: luminescent read, 60 second integration, high speed 2x binning Keywords: Spinal muscular atrophy, SMA, SMN2, high throughput screening, MLSMR, MLPCN, NIH Roadmap, qHTS and NCGC
Background: qHTS replaces the single test concentration by a dilution series.

Most of the hits are listed elsewhere, so they are rarer here than in the full data. Inconclusive results are not listed. Active and inactive are the calls of the source. Calls come from the whole dose curve; as a rule, active = well fitted activation curve with a large enough effect; inconclusive = small, poorly fitted or top-dose-only effect; inactive = no such curve, though single readings can be large or run the other way.

For the molecule `CN1C2CCC1CC(OC(=O)C(O)c1ccccc1)C2` (centres undefined), the activity change, positive = activation (at 46.1 µM (top of the series)) was inactive: 0.401%.

Turning to `COC(=O)c1ccc(NC(C)=O)cc1O`, the activity change, positive = activation (at 46.1 µM (top of the series)) is inactive: -30.7%.

On to `CN1[C@@H]2CC[C@H]1CC(OC(=O)[C@@H](O)c1ccccc1)C2` (some centres undefined), for which the activity change, positive = activation reads like this: (at 9.22 µM (top of the series)) inactive: -0.365%; (at 20.6 µM (top of the series)) inactive: -2.2%.

The record behind these values is PubChem BioAssay AID1458 (National Center for Advancing Translational Sciences (NCATS), 2008).
